Literature values as cited in US20250351832A1, “PHYTOCHEMICALS AS BIOPESTICIDES AND BIOSTIMULANTS” (KAY BEE BIO ORGANICS PVT. LTD., priority 2024, published 2025).
At least one compound was matched to its structure with a doubt left.

Details: cited from earlier work
[1] = Table 13, descriptive, no test described

## C=CCc1ccc(OC)cc1 [Methyl chavicol]
[1]
  Acaricidal Activity - Mode of action: Shows acaricidal activities
  Antifungal Activity - Mode of action: Shows antifungal activities
  Antioxidant Activity - Mode of action: Exhibits antioxidant
  Bactericidal Activity - Mode of action: Helpful in controlling
  Insecticidal Activities - Mode of action: Larvicidal effect shown
  Nematicidal Activity - Mode of action: Shows Nematicidal
Table 13, effect on plants, descriptive
  Phytotonic Effect: Trigger the
